Data: paper PMC6731690
Results are given in words; binding and its absence hold for the method and conditions named. Binding can be weak; no strength is given.

Experiments:
[1] = biological target: T1, BMP9 growth factor domain (BMP9-GFD) (UniProt Q9UK05); test: pull-down; pro-BMP9 applied to a nickel-chelating (Ni-NTA) column preloaded with His-tagged sENG (D+M); samples on 12% SDS/PAGE, Coomassie Blue; both purified
T1 sequence: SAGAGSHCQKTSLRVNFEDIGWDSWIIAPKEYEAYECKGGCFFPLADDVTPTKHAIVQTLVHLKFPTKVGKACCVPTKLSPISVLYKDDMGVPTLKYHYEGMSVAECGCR

[2] = biological target: T1, BMP9 growth factor domain (BMP9-GFD); test: native gel or EMSA; purified proteins premixed, incubated at room temperature for 10 min, 10% native PAGE; bands excised and rerun on 12% nonreducing SDS/PAGE; both purified
[3] = biological target: T1, BMP9 growth factor domain (BMP9-GFD); test: SEC; sENG(M) (1 mg) mixed with pro-BMP9 (10 ug GFD) at room temperature for 30 min; S200 10/30, 20 mM Tris-Cl, pH 7.4, 150 mM NaCl; fractions on nonreducing SDS/PAGE, immunoblotted; both purified

binding [1]: binds
binding [2]: binds
binding [3]: binds
Substance: BMP9 prodomain (from UniProt Q9UK05) (domain or fragment)
